Test [1] concerns the target adenylyl cyclase-associated protein 1 (CAP1), human, of THP-1 cells (human) (UniProt Q01518). The test can be described thus: co-immunoprecipitation from THP-1 cell extracts with anti-CAP1 or anti-resistin antibody, western blot.
Test [2] deals with mFc-human resistin fusion protein (mouse Fc region of immunoglobulin fused to the N-terminus of human resistin) (mouse; human) (UniProt Q9HD89). Kind of test: far western blotting: mFc-human resistin on PVDF membrane, renatured, probed with recombinant human CAP1, anti-CAP1 detection.
Test [3] addresses T1, recombinant human CAP1 protein (human), Q01518.
T1 chain: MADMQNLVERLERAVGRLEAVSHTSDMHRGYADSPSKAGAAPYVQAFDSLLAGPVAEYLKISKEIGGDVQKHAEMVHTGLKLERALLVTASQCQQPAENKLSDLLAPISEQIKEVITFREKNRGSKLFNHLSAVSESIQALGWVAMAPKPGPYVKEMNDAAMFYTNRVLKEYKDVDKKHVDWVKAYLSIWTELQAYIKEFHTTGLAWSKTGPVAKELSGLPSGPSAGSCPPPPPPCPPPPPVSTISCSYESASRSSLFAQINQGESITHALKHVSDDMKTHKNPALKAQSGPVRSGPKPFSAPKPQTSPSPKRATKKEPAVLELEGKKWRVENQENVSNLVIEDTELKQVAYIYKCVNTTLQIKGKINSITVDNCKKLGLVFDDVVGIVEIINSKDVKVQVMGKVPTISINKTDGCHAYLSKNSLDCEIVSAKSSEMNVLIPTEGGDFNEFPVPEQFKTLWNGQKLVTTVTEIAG
Kind of test: competition ELISA on plate-coated recombinant CAP1; competitor of mFc-human resistin (0.05, 0.5, 1 ug), anti-mFc-HRP, absorbance at 450 nm. Conditions: remark: other sources report otherwise. Background: An ELISA detects its analyte on a solid surface through an enzyme-linked reagent.

No constants are given. Whether binding was seen depends on the method and setting. For part of these data: Binding seen in cells or lysates may run through a third protein. Some entries that bind do so weakly or less than the wild type.

On to “human resistin in THP-1 cell extracts (from UniProt Q9HD89 19-108) (ligand)”, for which, in test [1], the binding entry was “binds”. On to “recombinant human CAP1 protein (from UniProt Q01518 1-475) (receptor; other documents disagree on this pair)”, for which the binding entry in test [2] is given as “binds”.

B1: recombinant human resistin protein, Q9HD89 19-108 (ligand, UniProt Q9HD89 19-108, looked up)
chain: KTLCSMEEAINERIQEVAGSLIFRAISSIGLECQSVTSRGDLATCPRGFAVTGCTCGSACGSWDVRAETTCHCQCAGMDWTGARCCRVQP
On to B1, for which, in test [3], the binding entry was “binds”.
